# Hit rate of the full screen: of about 140,000 compounds, about 4,300 (3.1%) were called active. This list was built around the results that the source calls inconclusive (neither active nor inactive); the mix of calls is not that of the screen.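 Rule for the calls: active = readout at or below -70, meaning at least 70% loss of cells showing the perinucleolar compartment, a nuclear body marking cancer cells; inconclusive = readout between -30 and a set limit; inactive = the rest.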
# Assay: High Content Assay for Compounds that inhibit the Assembly of the Perinucleolar Compartment;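 note: plate controls were DMSO wells for no effect and camptothecin positive control wells for full effect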
# Conditions: PC3M PTB-GFP, PNC prevalence imaging, 16 h; at 10 µM; active compounds read low
# Procedure, shortened: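 PC3M cells stably expressing PTB-GFP, 750–1000 cells/well, treated 16 h at 37 °C with compound (23 nl of library stock), in duplicate. After paraformaldehyde fixation and Hoechst stain, imaged at 20x; PNC prevalence scored by image analysis.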
row,SMILES,"activity change (PNC), negative = inhibition"
1,N#CC1(c2ccc(NC(=O)c3ccccc3)cc2)CCCC1,inconclusive: -67.5%
2,Nc1nc(CN2CCN(c3cccc(Cl)c3)CC2)nc(N2CCCc3ccccc32)n1,inconclusive: -57.5%
3,COc1cc2nc(/C=C/c3ccc(N(C)C)cc3)sc2cc1SC,inconclusive: -42.7%
4,N#CCC(CNc1ncc(C(F)(F)F)cc1Cl)OC(=O)c1cccc([N+](=O)[O-])c1 (stereo not drawn),inconclusive: -63.2%
5,CCCn1c(SCC(=O)Nc2nc3ccccc3s2)nc2c1c(=O)n(C)c(=O)n2C,active: -111%
6,O=C(CSC1=NCCS1)NC1CCCC1,inactive: 46.3%
7,COc1cc2cccc(OC)c(=O)c2c(O)c1OC,inactive: -23.2%
8,Cc1nc2ccccn2c1C(=O)NNS(=O)(=O)c1ccc(C(C)(C)C)cc1,inconclusive: -56.7%
9,COc1ccc(NC(=O)Nc2ccccc2C(=O)N2CCCC2)cc1,inconclusive: -62.3%
10,COC(=O)c1ccccc1NC(=O)c1cc([N+](=O)[O-])nn1Cc1ccccc1,inactive: 15.2%
11,Cc1cc(NC(=O)c2cc3ncc(Br)cn3n2)no1,inconclusive: -37.6%
12,CCn1c(SCC(=O)c2cc(C)ccc2C)nc2cc(S(=O)(=O)N3CCOCC3)ccc21,inconclusive: -66.3%
13,C=CCc1cc(C)ccc1OCCOCCC(C(=O)OCC)C(=O)OCC,inconclusive: -50.1%
14,O=C(Cn1cnc2c(cnn2-c2ccccc2)c1=O)NC1CCCC1,inconclusive: -51.6%
15,[O-]/[N+](=C\c1ccc(OC(F)F)cc1)c1ccccc1,inactive: 43.6%
16,O=C(NNS(=O)(=O)c1ccc(Cl)cc1)c1ccc(S(=O)(=O)N2CCCCC2)cc1,inactive: 7.04%
17,Cc1ccc(C(=O)CSc2cc(C)nc(SCC(=O)c3ccccc3)n2)cc1,inconclusive: -49.5%
18,O=C(Oc1ccc2c(c1)OCO2)c1ccc(F)cc1Cl,active: -109%
19,O=C(O)c1cccc(N2C(=O)C3CC=CCC3C2=O)c1 (stereo not drawn),active: -100%
20,COC(=O)c1c(N)nc(C)n1-c1ccc(OC)cc1,inconclusive: -47.6%
21,COc1ccc(C(=S)N(C)C)cc1OC,inconclusive: -48.7%
22,COc1cc(C(=O)Nc2nnc(-c3sccc3C)s2)cc(OC)c1OC,inconclusive: -61.3%
23,CCCC(=O)c1ccc2c(c1)OCCO2,inactive: -27.2%
24,Cn1nnnc1SC(C(=O)Nc1cccc(C(F)(F)F)c1)c1ccccc1 (stereo not drawn),inconclusive: -47.6%

# Reprinted from the listing, 23 compounds:
row,SMILES,"activity change (PNC), negative = inhibition"
1,N#CC1(c2ccc(NC(=O)c3ccccc3)cc2)CCCC1,inconclusive: -67.5%
2,Nc1nc(CN2CCN(c3cccc(Cl)c3)CC2)nc(N2CCCc3ccccc32)n1,inconclusive: -57.5%
3,COc1cc2nc(/C=C/c3ccc(N(C)C)cc3)sc2cc1SC,inconclusive: -42.7%
4,N#CCC(CNc1ncc(C(F)(F)F)cc1Cl)OC(=O)c1cccc([N+](=O)[O-])c1 (stereo not drawn),inconclusive: -63.2%
5,CCCn1c(SCC(=O)Nc2nc3ccccc3s2)nc2c1c(=O)n(C)c(=O)n2C,active: -111%
6,O=C(CSC1=NCCS1)NC1CCCC1,inactive: 46.3%
7,COc1cc2cccc(OC)c(=O)c2c(O)c1OC,inactive: -23.2%
8,Cc1nc2ccccn2c1C(=O)NNS(=O)(=O)c1ccc(C(C)(C)C)cc1,inconclusive: -56.7%
9,COc1ccc(NC(=O)Nc2ccccc2C(=O)N2CCCC2)cc1,inconclusive: -62.3%
10,COC(=O)c1ccccc1NC(=O)c1cc([N+](=O)[O-])nn1Cc1ccccc1,inactive: 15.2%
11,Cc1cc(NC(=O)c2cc3ncc(Br)cn3n2)no1,inconclusive: -37.6%
12,CCn1c(SCC(=O)c2cc(C)ccc2C)nc2cc(S(=O)(=O)N3CCOCC3)ccc21,inconclusive: -66.3%
13,C=CCc1cc(C)ccc1OCCOCCC(C(=O)OCC)C(=O)OCC,inconclusive: -50.1%
14,O=C(Cn1cnc2c(cnn2-c2ccccc2)c1=O)NC1CCCC1,inconclusive: -51.6%
15,[O-]/[N+](=C\c1ccc(OC(F)F)cc1)c1ccccc1,inactive: 43.6%
16,O=C(NNS(=O)(=O)c1ccc(Cl)cc1)c1ccc(S(=O)(=O)N2CCCCC2)cc1,inactive: 7.04%
17,Cc1ccc(C(=O)CSc2cc(C)nc(SCC(=O)c3ccccc3)n2)cc1,inconclusive: -49.5%
18,O=C(Oc1ccc2c(c1)OCO2)c1ccc(F)cc1Cl,active: -109%
19,O=C(O)c1cccc(N2C(=O)C3CC=CCC3C2=O)c1 (stereo not drawn),active: -100%
20,COC(=O)c1c(N)nc(C)n1-c1ccc(OC)cc1,inconclusive: -47.6%
21,COc1ccc(C(=S)N(C)C)cc1OC,inconclusive: -48.7%
22,COc1cc(C(=O)Nc2nnc(-c3sccc3C)s2)cc(OC)c1OC,inconclusive: -61.3%
23,CCCC(=O)c1ccc2c(c1)OCCO2,inactive: -27.2%

# The results go on.

row,SMILES,"activity change (PNC), negative = inhibition"
1,CCn1c(CC(=O)Nc2ccc(C)c(Cl)c2)nnc1SCC(=O)Nc1nc(C)cs1,inconclusive: -35.3%
2,CCOC(=O)c1c(C)[nH]c(C(=O)COC(=O)C2(C)CC2(Cl)Cl)c1C (stereo not drawn),inactive: 27.2%
3,CN(C)c1ccc(C(=O)Nc2cc(C(F)(F)F)ccc2-n2cncn2)cc1,active: -92.4%
4,CCOC(=O)c1c(N2C(=O)C=CC2=O)sc(C)c1C,inconclusive: -55.8%
5,O=C(O)c1ccccc1S(=O)(=O)c1ccccc1CO,inconclusive: -67.5%
6,COc1ccc(O)c(C(=O)c2cnc3c(c2)c(=O)[nH]c(=O)n3C)c1,inactive: 29.1%
7,CC(C)(C)c1cc(C(=O)N/N=C/c2ccc(O)cc2)n(-c2ccccc2)n1,inactive: 32.6%
8,CCN(CC)S(=O)(=O)N1CCC(C(=O)NCCN2CCOCC2)CC1,inactive: -7.35%
9,COCCCN1C(=O)C(O)=C(C(C)=O)C1c1ccccn1 (stereo not drawn),inconclusive: -55.6%
10,COc1ccccc1OCC(=O)N1CCN(c2ccccc2OC)CC1,inconclusive: -55.9%
11,O=C(Nc1cccc(Br)c1)/C(=C\c1cccnc1)NC(=O)c1ccco1,inconclusive: -50.6%
12,Cc1nc(NC(=O)c2ccccc2)sc1-c1csc(Nc2ccc(Cl)cc2)n1,inconclusive: -51%
13,Cc1ccccc1N(CC(=O)N/N=C/c1ccccc1Cl)C(=O)c1ccccc1,inconclusive: -53.3%
14,Cc1ccc(-n2c(C)cc(C(=O)COC(=O)c3ccc[nH]c3=O)c2C)cc1,active: -82%
15,Cc1ccc(C2C3CN(C(C)C)CC=C3C(C#N)=C(N)C2(C#N)C#N)cc1 (stereo not drawn),inconclusive: -52.2%
16,Cc1cc(NC(=O)CCC2CCCC2)no1,inconclusive: -31.8%
17,CCCOc1ccc(OCC(=O)c2[nH]c(C)c(C(C)=O)c2C)cc1,inconclusive: -36.7%
18,Cc1cccc(NC(=O)CSc2nnc(CCCCCNC(=O)OC(C)(C)C)o2)c1C,inconclusive: -54.5%
19,N#Cc1nc(-c2ccc(OCc3ccc(Cl)cc3)cc2)oc1N1CCC(C(N)=O)CC1,inconclusive: -46.6%
20,O=C(Cn1nc(Cl)nc1Cl)c1ccc2c(c1)OCCO2,inactive: 54.1%
21,Cn1c(=O)[nH]c(=O)c2c1nc(CN1CCN(c3ccccc3F)CC1)n2CC(N)=O,inconclusive: -45%
22,Cc1nn(-c2ccccc2)c(Cl)c1/C=N/NC(=O)c1ccc(CNc2ccccc2)o1,inconclusive: -50.2%
23,COc1ccc(C(CC(=O)Nc2ccc(C)cc2)NC(=O)C(F)(F)F)cc1 (stereo not drawn),inconclusive: -40.4%
24,COC(=O)C1(O)CC(CC(C)C)=NN1C(=O)c1ccccc1 (stereo not drawn),active: -124%

row,SMILES,"activity change (PNC), negative = inhibition"
1,COC(=O)C1=C(C)N=C2SC(C#N)=C(N)N2C1c1ccc(OCc2ccccc2)cc1 (stereo not drawn),inactive: -26.9%
2,CC1=CCC2COC(c3ccc[n+](Cc4ccccc4)c3)C1C2 (stereo not drawn),inconclusive: -39.4%
3,CCN1CCCC1Cn1cnc2c([nH]c3ccc(Cl)cc32)c1=O (stereo not drawn),inconclusive: -46.7%
4,CC(=O)c1ccc(NC(=O)Nc2ccc3c(c2)N(C)C(=O)CS3)cc1,inconclusive: -39.3%
5,O=C(O)/C=C/C(=O)Nc1cccnc1,inconclusive: -34.4%
6,O=C(NC(=S)Nc1nc2c(s1)CCCC2)c1ccc(C(=O)c2ccccc2)cc1,active: -124%
7,COC(=O)/C(N=Nc1c(C)n(C)n(-c2ccccc2)c1=O)=C(\C)O,inconclusive: -32.3%
8,CCCN1CN(Cc2ccccc2)CC2=C1CC(C)(C)CC2=O,inactive: -25.1%
9,O=C(NC(=S)NCC1COc2ccccc2O1)c1ccccc1 (stereo not drawn),inconclusive: -31.4%
10,CCOC(=O)C1CCN(c2c(NCCN3CCCCC3C)c(=O)c2=O)CC1 (stereo not drawn),inconclusive: -40.7%
11,CCCNC(=O)C/C(C)=N/NC(=O)COc1ccc(C)cc1Br,inconclusive: -32.5%
12,CCN1C(=S)SC(=O)C1=C1C=C(C)N(CCO)C(C)=C1,inconclusive: -40.4%
13,Cc1noc(C)c1Cn1nc(C(=O)O)c2ccccc2c1=O,inactive: -17.9%
14,CCCS(=O)(=O)N1CCCC(C(=O)NCCCN2CCN(c3ccccc3F)CC2)C1 (stereo not drawn),inconclusive: -47.7%
15,Cc1sc2ncn(CC(=O)N(CC(=O)NC3CCCC3)Cc3cccs3)c(=O)c2c1C,inconclusive: -64.9%
16,Cc1ccc(S(=O)(=O)c2ccccc2)cc1S(=O)(=O)N1CCOCC1,inconclusive: -53%
17,Oc1cc(Cc2ccccc2)cnc1CN1CCCCC1,inactive: 43.2%
18,Clc1ccc(-c2nnc3n2CCCS3)cc1,inconclusive: -34.6%
19,COc1ccccc1C(c1nnnn1C1CCCC1)N1CCN2CCCC2C1 (stereo not drawn),inconclusive: -32.3%
20,CCOC(=O)c1c(NC(=O)CC)sc(C(C)=O)c1C,inactive: -17%
21,COc1ccc(/C=N/NC(=O)c2ccc(CSc3nc(C)cc(C)n3)cc2)c(OC)c1OC,inactive: 76.3%
22,Cc1cccc2c1N(CCCOc1ccc(C(C)(C)C)cc1)C(=O)C2=O,inconclusive: -30.7%
23,N=C(N)SCc1ccccn1,active: -91%
24,O=C(Oc1ccnc2cc(Cl)ccc12)N1CCCCCC1,inconclusive: -48.1%

row,SMILES,"activity change (PNC), negative = inhibition"
1,CC(O)C1C(=O)OC2(C)CC(C)(C)NC(=S)N12 (stereo not drawn),inconclusive: -67.7%
2,CC1(C)CC(=O)C([N+](=O)[O-])=C(NCCCC(=O)O)C1,inconclusive: -42.3%
3,CN1CC2(C)OC(=O)C(Cl)=C2CC1c1ccccc1 (stereo not drawn),inactive: 37.7%
4,CSc1nc(Cl)cc(N(CCO)CCO)n1,inconclusive: -60.3%
5,CCOC(=O)CSc1nc2ccccc2n1C(=O)OCC,inactive: 16.8%
6,Cc1cc(C)nc(NS(=O)(=O)c2ccc(NC(=O)NC3CCCCC3)cc2)n1,inconclusive: -38.4%
7,CCOC(=O)Cc1nnc(Nc2cccc(C)c2)c2ccccc12,inconclusive: -43.8%
8,COCc1cc(C)nc(OCC(=O)N/N=C/c2cc(C)n(-c3c(C)cccc3C)c2C)c1C#N,inconclusive: -40.8%
9,C=CCn1c(-c2cccnc2Cl)nc2cc(Cl)c(Cl)cc21,inconclusive: -43.6%
10,C=CCNC(=S)NNc1nc2c(c(=O)[nH]1)C1(CCCC1)Cc1ccccc1-2,inactive: -8.52%
11,COc1ccc(C(=NNc2ccccc2C(=O)O)c2ccc(OC)cc2)cc1,inconclusive: -48.6%
12,COc1ccc(CCNC(=O)c2cc(C(C)C)on2)cc1OC,inactive: 17.1%
13,COC(=O)C(C)n1nc(C)n(-c2ccc(C)cc2)c1=O (stereo not drawn),inconclusive: -54.3%
14,CC(=O)Nc1nc(C)nc(C)c1C(C)=O,inconclusive: -68.2%
15,Cc1cc(C)c2[nH]c(=O)c(CN(Cc3cccs3)C(=S)NCC3CCCO3)cc2c1 (stereo not drawn),inactive: 56.8%
16,Cc1ccnc(N=Cc2c(O)ccc3oc4c(c23)CCCC4)c1,inactive: 26.9%
17,Cc1ccc2cc(CNC(C)(C)C)c(=O)[nH]c2c1,inconclusive: -34%
18,O=C1COc2ccc(C(=O)COC(=O)c3ccc4ccccc4n3)cc2N1,inactive: 3.48%
19,O=C(NC1CC1)c1ccc(F)cc1Cl,inactive: 1.26%
20,Cc1ccc(CNc2ccc(O)cc2)cc1,inactive: -20.9%
21,COc1ccc(OC)c(CN(CCCN2CCOCC2)C(=O)Nc2ccccc2)c1,inconclusive: -56.7%

# — PubChem BioAssay AID2417 (National Center for Advancing Translational Sciences (NCATS), 2010)
